Measured data: PubChem BioAssay AID1259424 (University of Nebraska Medical Center, 2018)
The whole screen tested about 14,000 reagents; this is a part drawn at random. 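Higher correlation or smaller distance means closer resemblance to KSR1 loss; control wells, including KSR1 knockdowns, recur on many plates.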 Not all columns of the deposit are shown. Not given: the time to read-out.

Screen: 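Seek colon cancer survival genes behaving like KSR1, using a six-gene signature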 (primary screen)
System: human HCT116 colon cancer cells
Reagent: siRNA pool against human genes, 50 nM
Measurement: 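Six signature mRNAs by branched-DNA multiplex assay, scaled to two housekeeping genes and non-targeting median, log2; matched to mean KSR1 knockdown profile by Pearson correlation and euclidean distance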
Reading the numbers: mean correlation with KSR1 profile: higher = expression change more like KSR1 knockdown; mean distance from KSR1 profile: higher = expression change less like KSR1 knockdown

Target gene,PubChem SID,mean correlation with KSR1 profile,mean distance from KSR1 profile
SPP2,SID363997696,0.56,1.71
KRT36,SID363994835,-0.396,1.45
GATA5,SID364004483,0.398,1.46
ITGA9,SID363993408,-0.59,2.13
MAP2K3,SID363993914,0.0607,3.84
SIGLEC1,SID364002629,-0.292,3.68
PLEKHA3,SID364001392,-0.265,1.78
SLC26A2,SID363991448,-0.665,2.05
FCGRT,SID363995117,0.385,1.28
ABCA2,SID363992833,-0.673,2.88
PRPF38B,SID364000749,-0.0529,2.98
PI4K2B,SID364000977,0.0108,2.1
MMP25,SID364002454,-0.0608,1.83
PIK3AP1,SID364004709,0.193,1.3
STX7,SID363994651,-0.569,3.86
TIMP3,SID363991693,-0.625,2.3
CACNA2D1,SID363992019,-0.0473,1.54
NPFFR2,SID363995835,0.754,1.46
LEPROTL1,SID363999430,-0.238,2.81
ABCC10,SID364004381,-0.185,2.01
FAS,SID363991382,-0.642,1.54
CLCN4,SID363993045,-0.459,4.45
IL9,SID363991908,0.288,1.49
PAPOLB,SID364001505,-0.0412,3.09
SHANK2,SID363998221,0.145,2.94
COMMD9,SID363998642,0.61,2.18
EIF2S2,SID363994966,-0.24,5.44
KMT5A,SID364001649,0.666,1.65
SLC4A9,SID364003649,0.594,2.73
TRIM5,SID364004291,0.716,1.39
TSPEAR,SID364004632,-0.412,6.93
ACADS,SID363991356,-0.267,2.73
CUZD1,SID364002278,-0.493,3.16
TMUB2,SID364004898,-0.498,4.1
CRYGC,SID364001931,0.426,1.52
USPL1,SID363996678,-0.524,2.76
CCN4,SID363994941,0.432,4.16
MT-ND3,SID364004843,-0.562,2.63
TRO,SID363999918,0.809,1.77
CRTAP,SID363997187,0.342,1.14
CMKLR2,SID363996199,0.798,0.93
JCHAIN,SID364004622,0.0758,2.99
NXT1,SID363998372,-0.267,1.74
SLX1B,SID364002705,-0.487,1.83
EFNB3,SID363992674,-0.0302,2.89
MRPS18B,SID363998572,-0.339,2.15
FAM106A,SID364003193,0.277,1.8
OR5L2,SID364005490,0.281,4.78
CRHR2,SID363993096,0.119,3.85
WNT9A,SID363994507,-0.609,2.16
